Results reported in PMC5192218.

What was measured:
Assay in all cases: co-IP; GFP-Trap anti-GFP beads precipitate the GFP-tagged protein (GFP-MKLP1, GFP-Anillin or GFP-MP-GAP) from lysates of transfected cells (293T, 2 μg GFP-MKLP1 and 6 μg p120 construct); p120 detected by western blot
[1] = target: T1, GFP-tagged Anillin (pEGFP-Anillin) (UniProt Q9NQW6)
T1 sequence: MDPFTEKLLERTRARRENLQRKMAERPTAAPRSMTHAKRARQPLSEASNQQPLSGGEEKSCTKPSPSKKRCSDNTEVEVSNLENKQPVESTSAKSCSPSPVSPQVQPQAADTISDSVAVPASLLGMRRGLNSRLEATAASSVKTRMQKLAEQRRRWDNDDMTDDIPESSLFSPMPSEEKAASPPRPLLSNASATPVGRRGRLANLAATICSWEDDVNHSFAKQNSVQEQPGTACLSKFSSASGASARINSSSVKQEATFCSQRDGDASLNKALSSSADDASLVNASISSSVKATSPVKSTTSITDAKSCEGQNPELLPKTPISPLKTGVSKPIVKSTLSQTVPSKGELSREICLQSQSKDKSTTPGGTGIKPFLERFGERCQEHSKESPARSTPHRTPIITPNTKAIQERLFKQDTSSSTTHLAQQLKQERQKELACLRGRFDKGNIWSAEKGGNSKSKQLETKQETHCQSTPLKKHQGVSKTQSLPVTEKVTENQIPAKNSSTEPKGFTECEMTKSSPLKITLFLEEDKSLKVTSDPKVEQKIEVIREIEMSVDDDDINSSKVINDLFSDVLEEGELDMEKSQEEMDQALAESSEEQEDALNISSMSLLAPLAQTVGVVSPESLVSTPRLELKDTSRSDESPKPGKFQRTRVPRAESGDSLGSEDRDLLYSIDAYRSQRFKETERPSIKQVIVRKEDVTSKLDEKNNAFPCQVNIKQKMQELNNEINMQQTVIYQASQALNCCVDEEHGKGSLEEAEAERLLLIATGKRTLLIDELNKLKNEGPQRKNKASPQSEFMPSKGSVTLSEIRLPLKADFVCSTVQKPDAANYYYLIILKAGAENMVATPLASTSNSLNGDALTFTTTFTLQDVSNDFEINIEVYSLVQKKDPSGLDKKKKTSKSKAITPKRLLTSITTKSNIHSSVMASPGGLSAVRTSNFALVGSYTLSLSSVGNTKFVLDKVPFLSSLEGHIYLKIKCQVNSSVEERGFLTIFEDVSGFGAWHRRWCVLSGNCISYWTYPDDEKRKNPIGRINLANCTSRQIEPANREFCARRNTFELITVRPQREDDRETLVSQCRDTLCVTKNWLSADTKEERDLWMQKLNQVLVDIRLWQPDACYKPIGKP

[2] = target: T2, GFP-tagged MKLP1 (in pEGFP-C1) (UniProt Q02241)
T2 sequence: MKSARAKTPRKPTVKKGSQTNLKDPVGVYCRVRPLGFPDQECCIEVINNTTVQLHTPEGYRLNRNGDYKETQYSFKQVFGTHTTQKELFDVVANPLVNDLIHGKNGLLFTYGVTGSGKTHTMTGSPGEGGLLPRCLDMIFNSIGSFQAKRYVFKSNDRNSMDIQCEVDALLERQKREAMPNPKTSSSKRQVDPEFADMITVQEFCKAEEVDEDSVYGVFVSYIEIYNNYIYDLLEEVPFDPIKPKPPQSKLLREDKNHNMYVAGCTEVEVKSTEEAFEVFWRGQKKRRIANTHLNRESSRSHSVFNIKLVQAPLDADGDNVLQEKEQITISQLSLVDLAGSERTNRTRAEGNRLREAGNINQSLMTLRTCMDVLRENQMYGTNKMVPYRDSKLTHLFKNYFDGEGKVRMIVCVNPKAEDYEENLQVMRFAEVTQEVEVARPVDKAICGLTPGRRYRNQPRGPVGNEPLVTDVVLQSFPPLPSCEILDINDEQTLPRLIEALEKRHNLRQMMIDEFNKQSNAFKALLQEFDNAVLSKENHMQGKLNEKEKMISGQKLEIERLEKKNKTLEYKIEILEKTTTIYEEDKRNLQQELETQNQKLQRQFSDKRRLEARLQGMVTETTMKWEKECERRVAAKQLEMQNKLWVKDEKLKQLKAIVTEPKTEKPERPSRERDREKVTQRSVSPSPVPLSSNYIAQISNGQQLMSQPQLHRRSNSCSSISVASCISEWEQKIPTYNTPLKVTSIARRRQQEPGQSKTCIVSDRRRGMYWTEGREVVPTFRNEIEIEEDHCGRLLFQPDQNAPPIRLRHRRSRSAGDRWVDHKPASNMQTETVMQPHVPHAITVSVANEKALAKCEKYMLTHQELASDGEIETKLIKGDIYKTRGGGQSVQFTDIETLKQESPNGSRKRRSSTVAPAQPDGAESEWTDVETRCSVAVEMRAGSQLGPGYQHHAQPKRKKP

[3] = target: T3, GFP-tagged MP-GAP (ARHGAP11A) (human) (UniProt Q6P4F7)
T3 sequence: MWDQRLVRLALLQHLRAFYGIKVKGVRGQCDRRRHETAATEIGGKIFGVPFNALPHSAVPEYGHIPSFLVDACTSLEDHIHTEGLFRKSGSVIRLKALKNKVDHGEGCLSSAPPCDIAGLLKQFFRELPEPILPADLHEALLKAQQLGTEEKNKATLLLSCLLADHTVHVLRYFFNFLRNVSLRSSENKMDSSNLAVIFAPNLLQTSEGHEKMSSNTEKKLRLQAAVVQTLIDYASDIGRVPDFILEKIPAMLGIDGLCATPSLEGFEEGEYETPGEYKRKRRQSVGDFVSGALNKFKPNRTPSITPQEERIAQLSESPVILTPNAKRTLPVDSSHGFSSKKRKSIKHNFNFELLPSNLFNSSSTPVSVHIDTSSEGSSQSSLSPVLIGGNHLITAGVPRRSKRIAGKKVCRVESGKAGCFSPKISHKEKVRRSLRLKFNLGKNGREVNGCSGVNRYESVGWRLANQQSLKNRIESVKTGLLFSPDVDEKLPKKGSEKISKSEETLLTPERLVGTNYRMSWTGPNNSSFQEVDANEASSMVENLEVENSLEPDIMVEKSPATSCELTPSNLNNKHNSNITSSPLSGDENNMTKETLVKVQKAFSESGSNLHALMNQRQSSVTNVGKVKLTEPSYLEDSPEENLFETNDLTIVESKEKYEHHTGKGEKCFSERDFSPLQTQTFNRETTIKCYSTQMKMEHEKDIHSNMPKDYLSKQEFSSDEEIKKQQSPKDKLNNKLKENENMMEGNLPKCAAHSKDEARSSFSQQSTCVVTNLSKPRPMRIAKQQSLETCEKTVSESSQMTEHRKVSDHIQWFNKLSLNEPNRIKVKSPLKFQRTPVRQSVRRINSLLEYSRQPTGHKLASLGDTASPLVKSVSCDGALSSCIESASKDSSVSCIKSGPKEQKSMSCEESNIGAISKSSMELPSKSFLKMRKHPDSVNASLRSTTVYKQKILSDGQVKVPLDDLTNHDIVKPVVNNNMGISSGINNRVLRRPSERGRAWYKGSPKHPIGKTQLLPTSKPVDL

Substance	binding [1]	binding [2]	binding [3]
p120-catenin isoform 1A (RC-CMV-p120-1A)	binds	binds	binds
p120-catenin isoform 3A (RC-CMV-p120-3A)	–	no binding	–
p120-catenin isoform 4A (RC-CMV-p120-4A)	–	no binding	–
p120ΔARM, truncation mutant lacking all ARM domains (RC-CMV-p120 ΔARM(1–10)) (domain or fragment)	–	binds	–

These are yes or no findings as the source states them, for the method shown. In cells and extracts the contact can be indirect. A result given as binding can be weak or reduced; the word gives no strength. Where a sequence is shown, tags or fusion partners need not be part of it.
